Source: PubChem BioAssay AID485353 (National Center for Advancing Translational Sciences (NCATS), 2010)
The whole screen tested about 330,000 compounds, of which about 610 (0.18%) were called active. The shares of active, inactive and inconclusive entries below differ from those in the screen. Calls follow the shape of the full dose curve. Potencies of inconclusive entries are doubtful fits and often do not repeat.

Assay: qHTS of Yeast-based Assay for SARS-CoV PLP; also: nearly all actives have a fitted effect of over 55% in size; as to activity, positive = growth rescue: 0% is about no effect
Conditions: S. cerevisiae expressing SARS-CoV PLpro; Potency: growth rescue; activity, positive = growth rescue: at 32.9 µM (top of the series)
Potency is read from the fitted curve at half-maximal effect.

Structure (SMILES) | Potency | activity, positive = growth rescue
O=C(NCc1nc(-c2ccccc2)no1)c1ccc(Br)o1 | inconclusive: 0.398 µM [activator, full curve, poor fit] | –
Cn1c(=O)c2c(nc(SCc3nc(N)nc(N4CCCCC4)n3)n2C)n(C)c1=O | inconclusive: 20 µM [activator, single point] | –
Cc1ccc(C)n1-c1ccc(-c2ccnc(N)n2)cc1 | – | inactive: 4.31%
Cc1cccc(NS(=O)(=O)c2ccc3[nH]c(=O)cc(C(=O)OC(C)C(=O)Nc4ccc([N+](=O)[O-])cc4)c3c2)c1 (centres undefined) | – | inactive: 0.445%
O=C1Nc2ccccc2C(O)(C(=O)NCc2ccco2)N1c1ccccc1 (centres undefined) | inconclusive: 0.355 µM [activator, partial curve, poor fit] | –
COc1cccc(-c2nc3n(n2)C(c2ccccc2Cl)C(C(N)=O)=C(C)N3)c1 (centres undefined) | inconclusive: 3.16 µM [activator, single point] | –
O=C(CNC(=O)c1cccc(Br)c1)N/N=C/c1cc(Br)cc(Br)c1O | active: 3.55 µM | –
Cc1cc(Nc2ccccc2)n2nc(C)c(-c3ccccc3)c2n1 | – | inactive: -0.418%
Cc1ccccc1NC(=S)NC1CCCC1 | inconclusive: 14.1 µM [activator, single point] | –
Cn1cccc1CNCCc1ccccc1F | – | inactive: -8.57%
Cc1onc(-c2ccccc2)c1C(=O)N/N=C/c1ccc([N+](=O)[O-])s1 | – | inactive: -66.8%
COc1cc(C(=O)NC(=S)NNC(=O)c2cnccn2)cc(OC)c1OC | inconclusive: 3.98 µM [activator, single point] | –
Cn1c(=O)c2c(SCC(=O)NCC3CCCO3)nc(-c3ccccc3Cl)nc2n(C)c1=O (centres undefined) | inconclusive: 20 µM [activator, single point] | –
CCN(c1ccccc1)S(=O)(=O)c1cc(CN2C(=O)c3cccnc3C2=O)ccc1OC | inconclusive: 6.31 µM [activator, partial curve] | –
Cc1ccc2c(c1)N(C(=O)CCC(=O)NC1CCN(Cc3ccccc3)CC1)CC(C)O2 (centres undefined) | inconclusive: 20 µM [activator, single point] | –
COc1ccc(O)c(/C=N/NC(=S)Nc2cccc(S(=O)(=O)N(C)C)c2)c1 | inconclusive: 5.62 µM [activator, partial curve] | –
COc1ccccc1C(=O)NCC(=O)NC(C)CCc1ccccc1 (centres undefined) | inconclusive: 4.47 µM [activator, single point] | –
CSc1ncccc1C(=O)NC(C)CCc1ccccc1 (centres undefined) | – | inactive: -1.99%
CC(Oc1ccccc1)C(=O)Nc1nnc(S(=O)(=O)N(C)c2ccccc2)s1 (centres undefined) | inconclusive: 4.47 µM [activator, single point] | –
COc1ccccc1C(=O)NC(=O)COC(=O)c1cccc(NC(C)=O)c1 | – | inactive: -0.435%
Brc1ccc(C2Nc3cccc4cccc(c34)N2)o1 | inconclusive: 3.16 µM [activator, single point] | –
COc1cccc(OCC(=O)NNC(=O)Cc2cccs2)c1 | inconclusive: 4.47 µM [activator, partial curve] | –
CC1(C)Cc2c(c(-c3ccco3)[nH]c(=O)c2C#N)CO1 | inconclusive: 0.708 µM [activator, full curve, poor fit] | –

Looked up above:
Value for Cc1onc(-c2ccccc2)c1C(=O)N/N=C/c1ccc([N+](=O)[O-])s1 under activity, positive = growth rescue: inactive: -66.8%
Value for Cc1cccc(NS(=O)(=O)c2ccc3[nH]c(=O)cc(C(=O)OC(C)C(=O)Nc4ccc([N+](=O)[O-])cc4)c3c2)c1 (centres undefined) under activity, positive = growth rescue: inactive: 0.445%

The list goes on.

Structure (SMILES) | Potency | activity, positive = growth rescue
C/C(=C\C(=O)c1ccc(C)o1)Nc1ccc2c(c1)OCO2 | inconclusive: 3.98 µM [activator, single point] | –
CC(C)(C)c1nnc(N/N=C/c2ccccc2O)n(N)c1=O | active: 3.16 µM | –
COCCN1CC(C(=O)NCCc2nc(C)c(C)s2)CCC1=O (centres undefined) | inconclusive: 12.6 µM [activator, single point] | –
COc1ccc(OC)c(/C=C2\S/C(=N/NC(=O)c3ccc4ccccc4c3)NC2=O)c1 | inconclusive: 3.16 µM [activator, partial curve, poor fit] | –
CCOC(=O)C1=C(N)OC2=C(C(=O)CCC2)C12C(=O)N1c3c(ccc(C)c32)C(C)=CC1(C)C (centres undefined) | inconclusive: 3.55 µM [activator, partial curve, poor fit] | –
CC(=O)c1cccc(CN2CCCC(C(=O)Nc3cccc(-n4cccn4)c3)C2)c1 (centres undefined) | inconclusive: 20 µM [activator, single point] | –
CSCCC(NS(=O)(=O)c1ccc(C)cc1)C(=O)N1CCN(C(C)=O)CC1 (centres undefined) | inconclusive: 3.16 µM [activator, single point] | –
Cc1cnc(C(=O)OC(C)C(=O)Nc2ccccc2-c2ccccc2)cn1 (centres undefined) | inconclusive: 3.98 µM [activator, single point] | –
C=CCn1c(SCc2cc(=O)n3cc(C)ccc3n2)nnc1-c1cccc(C)c1 | active: 11.2 µM | –
Clc1ccc2nc(N3CCN(c4ccccc4)CC3)sc2c1 | inconclusive: 4.47 µM [activator, single point] | –
Cc1ccc(C)c(N2C(=O)CS/C2=N\NC(=O)c2ccccc2Cl)c1 | inconclusive: 2.82 µM [activator, single point] | –
COc1ccc(/C(O)=C2/C(=O)C(=O)N(CCCN3CCOCC3)C2c2ccc(C(C)C)cc2)cc1 (centres undefined) | inconclusive: 20 µM [activator, single point] | –
O=C(N/N=C/c1cc(Br)cs1)C(O)c1ccccc1 (centres undefined) | inconclusive: 11.2 µM [activator, single point] | –
C=CCn1c(-c2cccc3ccccc23)n[nH]c1=S | inconclusive: 20 µM [activator, single point] | –
Cc1ccccc1CCNC(=O)C1CCC(=O)N(C2CCCCCC2)C1 (centres undefined) | inconclusive: 3.16 µM [activator, single point] | –
Cc1nnc(SCC(=O)c2c(N)n(C)c(=O)n(C)c2=O)n1Cc1ccccc1 | active: 22.4 µM | –
COc1ccc(/C=N/NC(=O)CCSc2nc3ccccc3s2)cc1OC | – | inactive: -1.64%
Cn1c(=O)c2c(SCC(=O)Nc3ccc4c(c3)OCCO4)nc(CC(C)(C)C)nc2n(C)c1=O | – | inactive: -6.25%
c1csc(C2=Nn3c(nnc3-c3ccncc3)SC2)c1 | – | inactive: -1.66%
NNC(=O)CN1C(=O)Nc2ccc(Br)cc2C1c1ccccc1 (centres undefined) | inconclusive: 2.24 µM [activator, full curve, poor fit] | –
CC(=O)N1CCN(c2cccc(C)c2C)CC1 | inconclusive: 3.16 µM [activator, partial curve] | –
O=S1(=O)N=C(c2ccccc2)C=C(c2ccccc2)N1 | – | inactive: 11.7%
CCOC(=O)N1CCN(C(c2cccnc2)c2ccc3cccnc3c2O)CC1 (centres undefined) | active: 11.2 µM | –

Structure (SMILES) | Potency | activity, positive = growth rescue
Cc1cc(C)nc(NS(=O)(=O)c2ccc(NC(=S)NC(=O)CC(C)C)cc2)n1 | inconclusive: 17.8 µM [activator, single point] | –
COc1ccc(C(=O)NCC(c2ccco2)N2CCc3ccccc32)cc1OC (centres undefined) | inconclusive: 0.316 µM [activator, partial curve, poor fit] | –
Cc1nn(CC(=O)Nc2cccnc2N2CCOCC2)c(=O)c2ccccc12 | inconclusive: 2.24 µM [activator, single point] | –
CC(C)(C)NC(=O)NC(=O)CSc1ncccn1 | inconclusive: 3.16 µM [activator, single point] | –
O=C(N1CCCCCC1)N1CCN(C(=O)N2CCOCC2)CC1 | inconclusive: 22.4 µM [activator, single point] | –
O=C1c2ccccc2NC(c2cn[nH]c2-c2ccc(Cl)cc2)N1O (centres undefined) | active: 7.94 µM | –
CCOc1cc(C(=O)Nc2cccc(C(C)=O)c2)ccc1OCC(=O)N1CCCCC1 | inconclusive: 2.82 µM [activator, single point] | –
O=C(COc1ccc2ccccc2c1Br)Nc1ccncc1 | inconclusive: 3.98 µM [activator, single point] | –
CN(C)CCNC(=O)Nc1ccc(Cl)c(Cl)c1 | inconclusive: 2.51 µM [activator, partial curve] | –
CCCn1c(NC(=O)c2cccc(C)c2C)nc2ccccc21 | inconclusive: 3.55 µM [activator, single point] | –
O=C(NCc1ccc(F)cc1)c1c2c(nc3ccccc13)CCN(Cc1ccccc1)C2 | inconclusive: 4.47 µM [activator, single point] | –
COc1ccccc1NS(=O)(=O)c1cc(C(=O)N2CCCC2)ccc1F | – | inactive: -0.617%
CCCCn1c(SCC(=O)N2CCOCC2)nnc1-c1cccs1 | inconclusive: 8.91 µM [activator, partial curve, poor fit] | –
O=C(Cn1c(C(F)(F)F)nc2ccccc21)NCCCN1CCOCC1 | inconclusive: 4.47 µM [activator, single point] | –
COc1ccc(-c2cc(C(=O)NCCN3CCOCC3)c3ccccc3n2)cc1OC | inconclusive: 11.2 µM [activator, single point] | –
Cc1ccc(NC(=O)c2ccc3nc[nH]c3c2)cc1C | – | inactive: 8.9%
Cc1cc(NC(=O)c2cccc(Cl)c2)n[nH]1 | – | inactive: -3.82%
Cc1ccc(S(=O)(=O)N(C)C[C@@H]2Oc3ccc(NC(=O)Nc4cccc5ccccc45)cc3C(=O)N([C@H](C)CO)C[C@H]2C)cc1 | active: 5.01 µM | –
O=C(NCc1cccnc1)/C(=C\c1ccc(-c2cccc(Cl)c2)o1)S(=O)(=O)c1ccccc1 | inconclusive: 8.91 µM [activator, partial curve] | –
CC(=O)Nc1ccc(NC(=O)COC(=O)c2c3c(nc4ccccc24)CCN(Cc2ccccc2)C3)cc1 | – | inactive: 1.25%
O=C1NC(=S)N(c2cccc(Cl)c2)C12CCCCC2 | inconclusive: 20 µM [activator, single point] | –
CCOC(=O)c1c(C)[nH]c(C)c1S(=O)(=O)NCCc1ccco1 | – | inactive: -4.49%
CCN(c1ccccc1)S(=O)(=O)c1ccc(C(=O)N(CCCN(C)C)c2nc3cc4c(cc3s2)OCO4)cc1 | inconclusive: 0.316 µM [activator, full curve] | –
